From patent publication EP0173480A2, “The antiviral use of phyllanthostatins” (priority 1984, dated 1986)
The name of at least one read-out is uncertain.

Tested on: Vero cells
Experiment: Cytotoxicity of drugs, absorbance at 260 nm of lysed cell monolayers
Conditions: drug concentration which reduces the OD260 of lysed cells by 50%, 4320 min

## CC(=O)O[C@@H]1[C@@H](O)[C@H](O[C@H]2[C@H](OC(=O)[C@H]3CC[C@@H]4[C@H](C3)O[C@@]3(C[C@H](OC(=O)/C=C/c5ccccc5)[C@H](C)CO3)[C@]43CO3)O[C@H](C)[C@@H](O)[C@@H]2OC(C)=O)O[C@H](C)[C@H]1O [Phyllanthoside]
  ID50 Vero 72 hrs.: 1.195 mg per ml
